# According to PubChem BioAssay AID1347076 (National Center for Advancing Translational Sciences (NCATS), 2019):
# In all, about 400,000 compounds went through this assay and about 13,000 (3.2%) were called active. Inconclusive means that the source gave no clear call. Such entries were picked first, then a sample of the others. Calls follow the shape of the dose curve; as a rule, active = well fitted cell-killing curve with a large enough effect; inconclusive = small, poorly fitted or top-dose-only effect, or effect the other way; inactive = flat fitted curve, though single readings scatter. Potencies of inconclusive entries are doubtful fits and often do not repeat.
# Experiment: qHTS assay for MDR1-selective chemotherapeutics: Primary screen using the drug-selected MDR subline cells KB-V1; also: nearly all actives have a fitted effect of over 60% in size
# Conditions: KB-V1 MDR cells viability, CellTiter-Glo, 72 h; activity change, negative = cytotoxicity: at 46.1 µM (top of the series)
# How it was run: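 Readout: CellTiter-Glo luminescence, 10 min after addition. Cells: KB-V1 MDR subline, 72 h at 37 degrees C with compound. Analysis: corrected, normalized data fitted to concentration-effect curves.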
# % is scaled to controls: 0 for no effect and ±100 for the full control effect; potency is read from the fitted curve at half-maximal effect.
SMILES,Potency,"activity change, negative = cytotoxicity"
Cc1ccc(S(=O)(=O)N2CCCCC2)cc1NC(=O)c1ccc(Cl)nc1,"inconclusive: 23.1 µM [cytotoxic, single point]",–
COC(=O)C(NNc1ccccc1)(NC(=O)c1ccc(F)cc1)C(F)(F)F (configuration not stated),active: 23.1 µM,–
Cc1ccc(CNC(=O)CSc2nc3ccsc3c(=O)n2Cc2ccccn2)cc1,"inconclusive: 13 µM [cytotoxic, partial curve]",–
Cc1ccc(Cn2c(C)c(C(=O)NCc3ccc4c(c3)OCO4)sc2=O)cc1,"inconclusive: 18.4 µM [cytotoxic, partial curve]",–
COc1ccc(-n2cc(-c3ccccc3)nc2SC)cc1,–,inactive: -9.1%
O=C(NC1CCCC1)C(c1ccccn1)N(C(=O)c1csnn1)C1CCCC1 (configuration not stated),active: 20.6 µM,–
O=P(c1ccccc1)(c1ccccc1)c1nc(-c2ccccc2)oc1NCc1ccccc1,"inconclusive: 18.4 µM [cytotoxic, single point]",–
CCN(C(=O)N1CCOCC1)c1ccccc1C,–,inactive: 37.6%
O=[N+]([O-])c1ccc(OCc2cnc(Cl)s2)c([N+](=O)[O-])c1,active: 1.16 µM,–
O=c1oc2c(CN3CCCCC3)c(O)ccc2c2c1CCCCC2,active: 5.8 µM,–
O=C(c1ccco1)N1CCN(C(=O)C2CCCc3c2[nH]c2ccc(Cl)cc32)CC1 (configuration not stated),"inconclusive: 6.51 µM [cytotoxic, partial curve]",–
COc1cc2[nH]c(=S)n(Cc3ccco3)c(=O)c2cc1OC,"inconclusive: 18.4 µM [cytotoxic, partial curve]",–
Cc1ccn2c(=O)nc(SCC(=O)Nc3ccc4c(c3)OCO4)nc2c1,"inconclusive: 20.6 µM [rising, partial curve, poor fit]",–
CC(C)CN1C(=O)NC(NC(=O)c2cccs2)(C(F)(F)F)C1=O (configuration not stated),"inconclusive: 32.6 µM [cytotoxic, partial curve, poor fit]",–
Cc1nc2c(C(=O)N3CCCC3)cnn2c(C)c1Cc1c(F)cccc1Cl,active: 23.1 µM,–
COc1cccc(-c2cc(NC(C)=O)c3ncc(-c4cccc(C(C)=O)c4)n3c2)c1,"inconclusive: 18.4 µM [cytotoxic, single point]",–
COc1ccccc1N(C(=O)Cn1nnc(-c2ccc(C)o2)n1)C(C(=O)NC1CCCC1)c1ccncc1 (configuration not stated),–,inactive: 20.8%
CCOC(=O)C1(Cc2cccc(OC)c2)CCN(Cc2cnc(C)s2)CC1,"inconclusive: 23.1 µM [cytotoxic, single point]",–
c1ccn2c(SCc3ccc4c(c3)OCO4)nnc2c1,"inconclusive: 29.1 µM [rising, single point]",–
COCCNc1oc(-c2ccco2)nc1S(=O)(=O)c1ccccc1,"inconclusive: 25.9 µM [cytotoxic, single point]",–
COc1ccc(Cl)cc1NC(=O)CN1C(=O)NC(Cc2c[nH]c3ccccc23)C1=O (configuration not stated),active: 20.6 µM,–

# An excerpt of these results, tab-delimited.
SMILES	Potency	activity change, negative = cytotoxicity
COc1cccc(-c2cc(NC(C)=O)c3ncc(-c4cccc(C(C)=O)c4)n3c2)c1	inconclusive: 18.4 µM [cytotoxic, single point]	–
COc1ccccc1N(C(=O)Cn1nnc(-c2ccc(C)o2)n1)C(C(=O)NC1CCCC1)c1ccncc1 (configuration not stated)	–	inactive: 20.8%

# The list continues:

SMILES,Potency,"activity change, negative = cytotoxicity"
O=C(NCCn1cc(SCc2ccc(C(F)(F)F)cc2)c2ccccc21)c1cccs1,"inconclusive: 29.1 µM [cytotoxic, single point]",–
Cc1cc(C)nc(NC(=NCCc2c[nH]c3ccccc23)NC(=O)C(C)(C)C)n1,"inconclusive: 16.4 µM [cytotoxic, partial curve, poor fit]",–
COc1ccc(-c2[nH]nc3nc(N4CCN(C(=O)c5ccoc5)CC4)cc(C(F)(F)F)c23)cc1,active: 6.51 µM,–
CC(=O)[C@@H]1[C@@H](C(=O)c2ccc(C)cc2)[C@]2(C(=O)Nc3ccccc32)[C@H]2C=Cc3cc(F)ccc3N12,"inconclusive: 29.1 µM [cytotoxic, single point]",–
O=C(Cc1ccc(Cl)cc1)NCc1ccccc1Cl,"inconclusive: 32.6 µM [cytotoxic, single point]",–
O=C(NCc1ccccc1)NC1CCS(=O)(=O)C1 (configuration not stated),"inconclusive: 20.6 µM [cytotoxic, single point]",–
O=c1[nH]c(SCc2nc3c(cnn3-c3ccccc3)c(=O)[nH]2)nc2ccccc12,"inconclusive: 7.31 µM [cytotoxic, partial curve, poor fit]",–
COc1cc2c(cc1OC)C(C)N(C(=O)c1cccc([N+](=O)[O-])c1)CC2 (configuration not stated),"inconclusive: 5.8 µM [cytotoxic, full curve]",–
Cc1ccc([C@H]2C[C@H](n3cc(COC(=O)c4ccccc4)nn3)[C@@H](O)CN2Cc2cccs2)cc1,–,inactive: -25.2%
COc1cc(NC(=O)c2cc([N+](=O)[O-])ccc2NC(=O)CNC2CCCCC2C)cc(OC)c1 (configuration not stated),"inconclusive: 4.11 µM [cytotoxic, full curve]",–
CC(C)Cc1ccc(CN2CCCC(NC(=O)CCn3cnnn3)C2)cc1 (configuration not stated),"inconclusive: 14.6 µM [cytotoxic, partial curve]",–
CN(C)Cc1c(C(=O)N/N=C/c2cccc(OCc3ccc(F)cc3)c2)nnn1-c1nonc1N,"inconclusive: 23.1 µM [cytotoxic, single point]",–
COc1ccc(C(=O)C2CCCN(C(=O)c3ccc(CSC)o3)C2)cc1F (configuration not stated),"inconclusive: 18.4 µM [cytotoxic, partial curve]",–
Cc1ccc2nc(-c3ccc(N4CCOCC4)cc3)c(Nc3ccccc3C)n2c1,–,inactive: -22.3%
COc1ccccc1-c1cc(NC(C)=O)c2ncc(-c3ccccc3)n2c1,"inconclusive: 20.6 µM [cytotoxic, single point]",–
Cc1oc(-c2ccc(Cl)cc2)nc1CN1CCCC(C(=O)NCc2cccnc2)C1 (configuration not stated),active: 2.31 µM,–
Cc1ccc(C(=O)c2c(NC(=O)c3ccncc3)sc3c2CCCC3)cc1,"inconclusive: 16.4 µM [cytotoxic, single point]",–
CCOC(=O)c1ccccc1NC1(c2ccc(OC)cc2)C(=O)c2ccccc2C1=O,–,inactive: 0.952%
c1ccc(-c2cc(-c3nc4ccccc4[nH]3)c3ccccc3n2)cc1,active: 16.4 µM,–
CC(O)C(=O)N/N=C/c1cccc(Cl)c1Cl (configuration not stated),"inconclusive: 29.1 µM [cytotoxic, single point]",–
O=S(=O)(NCCSCc1c(Cl)cccc1Cl)c1ccc2c(c1)OCCO2,"inconclusive: 18.4 µM [cytotoxic, single point]",–
